Measurements reported in PubChem BioAssay AID330 (DTP/NCI, 2004).
The list shows only some results of the screen, not a fair sample: it gathers tests that were run many times, whatever their T/C, doses with no T/C, and many T/C values between a quarter and a half above the control. Other doses and runs of a compound stand elsewhere. T/C: endpoint of the treated group in % of that of the vehicle group. Some doses have a count of surviving animals in place of a T/C: the source holds a T/C of zero for them, seemingly a mark for toxic or unscored doses. Some survivor counts are full or nearly so, which does not show that the dose was tolerated: survival well below the control is almost never listed, so the zero probably covers shortened survival too. Survivors were counted at the toxicity check, usually on the fifth day, unless a day is given; later deaths do not show. Schedules are NCI's codes, taken here to give the interval after Q, in days (D) or hours (H), and the number of doses after X. Some entries hold several experiments; their values stand side by side, smallest first. Counts like (3×) count equal records among those shown. Where survival is the endpoint, this PubChem deposit counts one and a half times the control or more as active, and values a quarter to a half above the control carry no call in these data; other NCI protocols may use other cut-offs. Some T/C values are followed by the survivors on the day toxicity was checked, most often the fifth; where none is given, no animal had died by that day.

Test system: P388 leukemia ip, CD2F1 mice, survival T/C
Experiment: NCI In Vivo Anticancer Drug Screen. Data for tumor model P388 Leukemia (intraperitoneal) in CD2F1 (CDF1) mice
Conditions: T/C endpoint: median survival time, vehicle: Klucel (hydroxypropylcellulose) (HPC), higher T/C = longer survival
[1] = dose: 50.0 mg/kg/injection, schedule: Q01DX009 (ip)
[2] = dose: 50.0 mg/kg/injection, schedule: Q04DX002 (ip)
[3] = dose: 100.0 mg/kg/injection, schedule: Q01DX009 (ip)
[4] = dose: 100.0 mg/kg/injection, schedule: Q04DX002 (ip)
[5] = dose: 200.0 mg/kg/injection, schedule: Q01DX009 (ip)
[6] = dose: 400.0 mg/kg/injection, schedule: Q01DX005 (ip)
[7] = dose: 400.0 mg/kg/injection, schedule: Q01DX009 (ip)
[8] = dose: 400.0 mg/kg/injection, schedule: Q04DX002 (ip)

## O=C1CN=C(c2ccc[nH]2)c2cc(Cl)ccc2N1
dose: 50.0 mg/kg/injection, schedule: Q01DX001 (ip), evaluated on day 30
  T/C: 90, 92, 93, 96, 97 (2×), 98 (2×), 99, 100, 101 (3×), 102 (2×), 103 (4×), 104, 105 (2×), 107, 108, 110, 111 % of control (3×)
dose: 50.0 mg/kg/injection, schedule: Q01DX001 (ip), evaluated on day 35
  T/C: 104 % of control
dose: 50.0 mg/kg/injection, schedule: Q01DX001 (ip)
  survivor count: 3 of 3 and 6 of 6
dose: 50.0 mg/kg/injection, schedule: Q01DX005 (ip), evaluated on day 30
  T/C: 89, 91, 98, 99 (2×), 100 (2×), 101 (2×), 102 (5×), 103 (3×), 104, 105, 106, 109, 110 (2×), 111, 112 (2×), 113, 115 (2×), 116 (2×), 117, 126 % of control
dose: 50.0 mg/kg/injection, schedule: Q01DX005 (ip), evaluated on day 35
  T/C: 118 % of control
dose: 50.0 mg/kg/injection, schedule: Q01DX005 (ip)
  survivor count: 6 of 6
[1]
  T/C: 90 (2×), 92, 93, 99, 102 (2×), 103, 104 (2×), 105 (5×), 106 (3×), 108 (2×), 109 (2×), 110, 113 (3×), 114, 115, 118 (2×), 123, 133, 140, 144 % of control
  survivor count: 6 of 6
[2]
  T/C: 86 (2×), 90, 94, 96, 97 (4×), 98, 99 (2×), 100 (4×), 101 (4×), 102 (2×), 103, 105 (3×), 106, 107, 109 (2×), 111 (3×), 116 % of control
  survivor count: 3 of 3
dose: 50.0 mg/kg/injection, schedule: Q04DX003 (ip), evaluated on day 30
  T/C: 87 (2×), 92, 94, 99, 100 (4×), 101 (2×), 102 (4×), 103 (4×), 105 (2×), 105 [5 of 6 alive], 106, 107 (2×), 108 (2×), 109, 111, 114, 116, 119, 120, 121 % of control
dose: 50.0 mg/kg/injection, schedule: Q04DX003 (ip), evaluated on day 35
  T/C: 107 % of control
dose: 50.0 mg/kg/injection, schedule: Q04DX003 (ip)
  survivor count: 6 of 6
dose: 100.0 mg/kg/injection, schedule: Q01DX001 (ip), evaluated on day 30
  T/C: 90, 97 (2×), 98, 99, 99 [5 of 6 alive], 100 (2×), 101, 102, 103 [5 of 6 alive], 104, 105 (2×), 106 (4×), 108, 109, 110, 111 (4×), 113, 117, 120 % of control
dose: 100.0 mg/kg/injection, schedule: Q01DX001 (ip), evaluated on day 35
  T/C: 102 % of control
dose: 100.0 mg/kg/injection, schedule: Q01DX001 (ip)
  survivor count: 3 of 3 and 6 of 6
dose: 100.0 mg/kg/injection, schedule: Q01DX005 (ip), evaluated on day 30
  T/C: 87, 88, 98, 100, 103, 104 (3×), 106 (2×), 107 (3×), 107 [5 of 6 alive], 109 (2×), 111, 112 (2×), 114, 117 (3×), 118, 120, 124 (2×), 132, 134, 140 % of control
dose: 100.0 mg/kg/injection, schedule: Q01DX005 (ip), evaluated on day 35
  T/C: 117 % of control
dose: 100.0 mg/kg/injection, schedule: Q01DX005 (ip)
  survivor count: 1 of 3, 3 of 3, 6 of 6
[3]
  T/C: 87, 88, 90, 99, 100 (2×), 101, 102, 103, 105 (2×), 106, 107, 108, 110, 111 (2×), 112, 114 (2×), 115 (2×), 117, 118, 123, 126 (2×), 131, 135 (2×), 138, 143, 144 % of control
  survivor count: 3 of 3 and 6 of 6 (2×)
[4]
  T/C: 91, 93, 94 (2×), 97, 99 (2×), 100 (3×), 101, 102, 103 (2×), 104 (3×), 105, 106 (2×), 107, 107 [5 of 6 alive], 108 (3×), 109 (3×), 111, 113, 114 (2×), 118, 119 % of control
  survivor count: 6 of 6
dose: 100.0 mg/kg/injection, schedule: Q04DX003 (ip), evaluated on day 30
  T/C: 87, 90, 94, 95, 100 (2×), 101 (4×), 102 (3×), 103, 105 (4×), 107 (4×), 108 (3×), 110 (3×), 111, 112 (2×), 114 (2×), 117 % of control
dose: 100.0 mg/kg/injection, schedule: Q04DX003 (ip), evaluated on day 35
  T/C: 108 % of control
dose: 100.0 mg/kg/injection, schedule: Q04DX003 (ip)
  survivor count: 5 of 6
dose: 200.0 mg/kg/injection, schedule: Q01DX001 (ip), evaluated on day 30
  T/C: 90, 96 [5 of 6 alive], 97, 100 (2×), 101 (2×), 104 (2×), 105, 106 (2×), 108, 109 [2 of 3 alive], 110 (3×), 111 (3×), 112, 113, 115, 116, 118, 121 % of control (3×)
dose: 200.0 mg/kg/injection, schedule: Q01DX001 (ip), evaluated on day 35
  T/C: 106 % of control
dose: 200.0 mg/kg/injection, schedule: Q01DX001 (ip)
  survivor count: 3 of 3 and 6 of 6
dose: 200.0 mg/kg/injection, schedule: Q01DX005 (ip), evaluated on day 30
  T/C: 91, 94, 95, 97, 100, 101, 103, 105, 107 [5 of 6 alive], 109 (2×), 115 (2×), 117 (2×), 122 [2 of 3 alive], 123 [5 of 6 alive], 125, 126 (2×), 132, 141, 148, 150 % of control
dose: 200.0 mg/kg/injection, schedule: Q01DX005 (ip), evaluated on day 35
  T/C: 111 % of control
dose: 200.0 mg/kg/injection, schedule: Q01DX005 (ip)
  survivor count: 0 of 3, 0 of 6, 1 of 6, 1 of 3, 2 of 3, 4 of 6, 3 of 3, 6 of 6
[5]
  T/C: 87 (2×), 89, 90, 91, 92, 92 [2 of 3 alive], 94, 97, 98, 100, 101, 102, 106, 107 (2×), 115, 116 (3×), 120 (2×), 121, 123 [5 of 6 alive], 125, 126, 131, 148, 153 % of control
  survivor count: 1 of 3, 2 of 6, 2 of 3, 4 of 6, 6 of 6 (2×)
dose: 200.0 mg/kg/injection, schedule: Q04DX002 (ip)
  T/C: 86, 89 (2×), 96, 98 (2×), 98 [5 of 6 alive], 100 (2×), 101, 102 (3×), 105 [2 of 3 alive], 106 (2×), 106 [2 of 3 alive], 107 (2×), 109 (4×), 109 [4 of 6 alive], 110 (2×), 111, 112, 112 [2 of 3 alive], 113, 115, 119, 120, 123, 127 % of control
dose: 200.0 mg/kg/injection, schedule: Q04DX003 (ip), evaluated on day 30
  T/C: 86 [5 of 6 alive], 88, 91, 94 [5 of 6 alive], 95 (2×), 100 (5×), 100 [2 of 3 alive], 101, 102 (2×), 103, 105 (2×), 106, 108, 111 (4×), 112, 113 (2×), 116 (3×), 120, 121, 122 % of control
dose: 200.0 mg/kg/injection, schedule: Q04DX003 (ip), evaluated on day 35
  T/C: 117 % of control
dose: 200.0 mg/kg/injection, schedule: Q04DX003 (ip)
  survivor count: 3 of 3 and 6 of 6
dose: 400.0 mg/kg/injection, schedule: Q01DX001 (ip), evaluated on day 30
  T/C: 94, 99, 99 [2 of 3 alive], 100, 101, 105 (3×), 106 [5 of 6 alive], 107, 111, 116 [4 of 6 alive], 118, 118 [4 of 6 alive], 120 [2 of 3 alive] (2×), 121 (3×), 122 (2×), 147 % of control [2 of 3 alive]
dose: 400.0 mg/kg/injection, schedule: Q01DX001 (ip), evaluated on day 35
  T/C: 119 % of control [4 of 6 alive]
dose: 400.0 mg/kg/injection, schedule: Q01DX001 (ip)
  survivor count: 0 of 6, 1 of 6, 1 of 3, 3 of 6, 3 of 3, 6 of 6
[6]
  T/C: 90, 101, 102, 104 [5 of 6 alive], 106, 110, 114 [4 of 6 alive], 116, 134 % of control
  survivor count: 0 of 3, 0 of 6, 1 of 6, 1 of 3, 2 of 6, 3 of 6, 2 of 3, 4 of 6, 5 of 6 (2×), 3 of 3, 6 of 6
[7]
  T/C: 86, 87, 90, 98 [2 of 3 alive], 106, 111 [2 of 3 alive], 113 (2×), 113 [4 of 6 alive], 120, 127, 128, 129 % of control
  survivor count: 0 of 3, 0 of 6, 2 of 6, 3 of 6, 2 of 3, 4 of 6 (2×), 3 of 3
[8]
  T/C: 89 [2 of 3 alive], 90 [5 of 6 alive], 92 [2 of 3 alive], 96, 97 [5 of 6 alive], 100 (2×), 101, 102, 103, 105 (2×), 106, 107 (3×), 109 [2 of 3 alive], 110, 114 [2 of 3 alive], 122 [4 of 6 alive], 125 [2 of 3 alive], 131 % of control
  survivor count: 0 of 3, 0 of 6, 1 of 6, 1 of 3, 2 of 6, 3 of 6, 2 of 3, 4 of 6, 5 of 6
dose: 400.0 mg/kg/injection, schedule: Q04DX003 (ip), evaluated on day 30
  T/C: 89 [5 of 6 alive], 92 [5 of 6 alive], 98, 99, 103 [2 of 3 alive], 106, 107, 110, 110 [5 of 6 alive], 111 (2×), 112, 117, 120, 120 [4 of 6 alive], 121 (2×), 122 [5 of 6 alive], 135 [2 of 3 alive], 142 % of control
dose: 400.0 mg/kg/injection, schedule: Q04DX003 (ip), evaluated on day 35
  T/C: 117 % of control
dose: 400.0 mg/kg/injection, schedule: Q04DX003 (ip)
  survivor count: 0 of 3, 1 of 6, 1 of 3, 2 of 6, 1 of 2, 3 of 6, 2 of 3, 4 of 6, 3 of 3, 6 of 6
